This is one part of the list.
Assays:
Assay in all cases: glycan array binding signal (z-score within array); higher = stronger binding
Settings in all cases: glycan notation: IUPAC condensed, linker removed
[1] = target: Neu5Ac(a2-3)Gal6S(b1-4)[Fuc(a1-3)]GlcNAc
Procedure, shortened: (§1)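 The Consortium for Functional Glycomics database supplied 3228 glycan arrays, of which those lacking an available protein sequence were dropped. The binding signal, a within-array Z-score, was averaged across arrays of the same protein sequence and across linkers. Negative scores can be read as non-binding.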

Neu5Ac(a2-3)GalNAc = target: Neu5Ac(a2-3)GalNAc
Procedure, shortened: as §1

[2] = target: Neu5Ac(a2-3)GalNAc(b1-4)GlcNAc
Procedure, shortened: as §1

[3] = target: Neu5Ac(a2-3)[GalNAc(b1-4)]Gal(b1-4)Glc
Procedure, shortened: as §1

[4] = target: Neu5Ac(a2-3)[GalNAc(b1-4)]Gal(b1-4)GlcNAc
Procedure, shortened: as §1

[5] = target: Neu5Ac(a2-3)[GalNAc(b1-4)]Gal(b1-4)GlcNAc(b1-3)GalNAc
Procedure, shortened: as §1

[6] = target: Neu5Ac(a2-3)[Neu5Ac(a2-6)]GalNAc
Procedure, shortened: as §1

Neu5Ac(a2-6)Gal = target: Neu5Ac(a2-6)Gal
Procedure, shortened: as §1

[7] = target: Neu5Ac(a2-6)Gal(b1-3)GlcNAc(b1-3)[Gal(b1-4)GlcNAc(b1-6)]Gal(b1-4)Glc
Procedure, shortened: as §1

Neu5Ac(a2-6)Gal(b1-4)Glc = target: Neu5Ac(a2-6)Gal(b1-4)Glc
Procedure, shortened: as §1

[8] = target: Neu5Ac(a2-6)Gal(b1-4)GlcNAc
Procedure, shortened: as §1

[9] = target: Neu5Ac(a2-6)Gal(b1-4)GlcNAc(b1-2)Man
Procedure, shortened: as §1

[10] = target: Neu5Ac(a2-6)Gal(b1-4)GlcNAc(b1-2)Man(a1-3)Man(b1-4)GlcNAc(b1-4)GlcNAc
Procedure, shortened: as §1

[11] = target: Neu5Ac(a2-6)Gal(b1-4)GlcNAc(b1-2)Man(a1-3)[Gal(b1-4)GlcNAc(b1-2)Man(a1-6)]Man(b1-4)GlcNAc(b1-4)GlcNAc
Procedure, shortened: as §1

[12] = target: Neu5Ac(a2-6)Gal(b1-4)GlcNAc(b1-2)Man(a1-3)[GlcNAc(b1-2)Man(a1-6)]Man(b1-4)GlcNAc(b1-4)GlcNAc
Procedure, shortened: as §1

[13] = target: Neu5Ac(a2-6)Gal(b1-4)GlcNAc(b1-2)Man(a1-3)[GlcNAc(b1-4)][Neu5Ac(a2-6)Gal(b1-4)GlcNAc(b1-2)Man(a1-6)]Man(b1-4)GlcNAc(b1-4)GlcNAc
Procedure, shortened: as §1

[14] = target: Neu5Ac(a2-6)Gal(b1-4)GlcNAc(b1-2)Man(a1-3)[Man(a1-6)]Man(b1-4)GlcNAc(b1-4)GlcNAc
Procedure, shortened: as §1

[15] = target: Neu5Ac(a2-6)Gal(b1-4)GlcNAc(b1-2)Man(a1-3)[Neu5Ac(a2-3)Gal(b1-4)GlcNAc(b1-2)Man(a1-6)]Man(b1-4)GlcNAc(b1-4)GlcNAc
Procedure, shortened: as §1

[16] = target: Neu5Ac(a2-6)Gal(b1-4)GlcNAc(b1-2)Man(a1-3)[Neu5Ac(a2-6)Gal(b1-4)GlcNAc(b1-2)Man(a1-6)]Man(b1-4)GlcNAc(b1-4)GlcNAc
Procedure, shortened: as §1

[17] = target: Neu5Ac(a2-6)Gal(b1-4)GlcNAc(b1-2)Man(a1-3)[Neu5Ac(a2-6)Gal(b1-4)GlcNAc(b1-2)Man(a1-6)]Man(b1-4)GlcNAc(b1-4)[Fuc(a1-6)]GlcNAc
Procedure, shortened: as §1

[18] = target: Neu5Ac(a2-6)Gal(b1-4)GlcNAc(b1-2)Man(a1-6)Man(b1-4)GlcNAc(b1-4)GlcNAc
Procedure, shortened: as §1

[19] = target: Neu5Ac(a2-6)Gal(b1-4)GlcNAc(b1-2)Man(a1-6)[Gal(b1-4)GlcNAc(b1-2)Man(a1-3)]Man(b1-4)GlcNAc(b1-4)GlcNAc
Procedure, shortened: as §1

[20] = target: Neu5Ac(a2-6)Gal(b1-4)GlcNAc(b1-2)Man(a1-6)[GlcNAc(b1-2)Man(a1-3)]Man(b1-4)GlcNAc(b1-4)GlcNAc
Procedure, shortened: as §1

[21] = target: Neu5Ac(a2-6)Gal(b1-4)GlcNAc(b1-2)Man(a1-6)[Man(a1-3)]Man(b1-4)GlcNAc(b1-4)GlcNAc
Procedure, shortened: as §1

[22] = target: Neu5Ac(a2-6)Gal(b1-4)GlcNAc(b1-2)[Neu5Ac(a2-6)Gal(b1-4)GlcNAc(b1-4)]Man(a1-3)[GlcNAc(b1-4)][Neu5Ac(a2-6)Gal(b1-4)GlcNAc(b1-2)[Neu5Ac(a2-6)Gal(b1-4)GlcNAc(b1-6)]Man(a1-6)]Man(b1-4)GlcNAc(b1-4)GlcNAc
Procedure, shortened: as §1

[23] = target: Neu5Ac(a2-6)Gal(b1-4)GlcNAc(b1-2)[Neu5Ac(a2-6)Gal(b1-4)GlcNAc(b1-4)]Man(a1-3)[GlcNAc(b1-4)][Neu5Ac(a2-6)Gal(b1-4)GlcNAc(b1-4)Man(a1-6)]Man(b1-4)GlcNAc(b1-4)GlcNAc
Procedure, shortened: as §1

[24] = target: Neu5Ac(a2-6)Gal(b1-4)GlcNAc(b1-2)[Neu5Ac(a2-6)Gal(b1-4)GlcNAc(b1-6)]Man(a1-6)[Neu5Ac(a2-6)Gal(b1-4)GlcNAc(b1-2)Man(a1-3)][GlcNAc(b1-4)]Man(b1-4)GlcNAc(b1-4)GlcNAc
Procedure, shortened: as §1

[25] = target: Neu5Ac(a2-6)Gal(b1-4)GlcNAc(b1-3)Gal(b1-3)GlcNAc
Procedure, shortened: as §1

[26] = target: Neu5Ac(a2-6)Gal(b1-4)GlcNAc(b1-3)Gal(b1-4)GlcNAc
Procedure, shortened: as §1

[27] = target: Neu5Ac(a2-6)Gal(b1-4)GlcNAc(b1-3)Gal(b1-4)GlcNAc(b1-2)Man(a1-3)[Neu5Ac(a2-6)Gal(b1-4)GlcNAc(b1-3)Gal(b1-4)GlcNAc(b1-2)Man(a1-6)]GalNAc
Procedure, shortened: as §1

[28] = target: Neu5Ac(a2-6)Gal(b1-4)GlcNAc(b1-3)Gal(b1-4)GlcNAc(b1-3)Gal(b1-4)GlcNAc
Procedure, shortened: as §1

[29] = target: Neu5Ac(a2-6)Gal(b1-4)GlcNAc(b1-3)Gal(b1-4)GlcNAc(b1-3)Gal(b1-4)GlcNAc(b1-2)Man(a1-3)[Neu5Ac(a2-6)Gal(b1-4)GlcNAc(b1-3)Gal(b1-4)GlcNAc(b1-3)Gal(b1-4)GlcNAc(b1-2)Man(a1-6)]GalNAc
Procedure, shortened: as §1

[30] = target: Neu5Ac(a2-6)Gal(b1-4)GlcNAc(b1-3)Gal(b1-4)GlcNAc(b1-3)GalNAc
Procedure, shortened: as §1

[31] = target: Neu5Ac(a2-6)Gal(b1-4)GlcNAc(b1-3)Gal(b1-4)GlcNAc(b1-3)[Neu5Ac(a2-6)Gal(b1-4)GlcNAc(b1-3)Gal(b1-4)GlcNAc(b1-6)]GalNAc
Procedure, shortened: as §1

[32] = target: Neu5Ac(a2-6)Gal(b1-4)GlcNAc(b1-3)Gal(b1-4)GlcNAc(b1-6)[Gal(b1-3)]GalNAc
Procedure, shortened: as §1

[33] = target: Neu5Ac(a2-6)Gal(b1-4)GlcNAc(b1-3)Gal(b1-4)[Fuc(a1-3)]GlcNAc(b1-3)Gal(b1-4)[Fuc(a1-3)]GlcNAc
Procedure, shortened: as §1

[34] = target: Neu5Ac(a2-6)Gal(b1-4)GlcNAc(b1-3)GalNAc
Procedure, shortened: as §1

B1: AT1G80310(18) (Arabidopsis thaliana), Q0WP36 (protein)
chain: METTTTPLLPGDRSRCGWLRRRLRLKNPLSSELSGAVGDLGTFIPIVLTLTLVSNLDLSTTLIFTGFYNIATGLLFDIPMPVQPMKSIAAVAVSESPHLTPSQIAAAGASTAATLLLLGATGAMSFLYNIIPLPVVRGVQLSQGLQFAFTAIKYVRFNYDTATLKPSSSPRIWLGLDGLILALAALLFIILSTGSGNDREAEDGDLAETSSNESQSRRRRLRLLSSIPSALIVFALGLVLCFIRDPSIFKDLKFGPSKFHILRISWDDWKIGFLRAAIPQIPLSVLNSVIAVCKLSNDLFDKELSATTVSISVGVMNLIGCWFGAMPVCHGAGGLAGQYRFGARSGLSVIFLGIGKLIVGLVFGNSFVRILSQFPIGILGVLLLFAGIELAMASKDMNSKEDSFIMLVCAAVSMTGSSAALGFGCGVVLYLLLKLRTLDCSSVTLFSRSSDESQVDSEAAPRDV
glycan array binding signal (z-score) [1]: -0.748 | glycan array binding signal (z-score) (Neu5Ac(a2-3)GalNAc): -0.767 | glycan array binding signal (z-score) [2]: -0.876 | glycan array binding signal (z-score) [3]: -0.643 | glycan array binding signal (z-score) [4]: -1 | glycan array binding signal (z-score) [5]: -0.959 | glycan array binding signal (z-score) [6]: -0.261 | glycan array binding signal (z-score) (Neu5Ac(a2-6)Gal): -0.868 | glycan array binding signal (z-score) [7]: -0.366 | glycan array binding signal (z-score) (Neu5Ac(a2-6)Gal(b1-4)Glc): 0.38 | glycan array binding signal (z-score) [8]: -0.385 | glycan array binding signal (z-score) [9]: -0.534 | glycan array binding signal (z-score) [10]: -0.94 | glycan array binding signal (z-score) [11]: -0.569 | glycan array binding signal (z-score) [12]: -0.532 | glycan array binding signal (z-score) [13]: 0.246 | glycan array binding signal (z-score) [14]: 2.26 | glycan array binding signal (z-score) [15]: -0.312 | glycan array binding signal (z-score) [16]: -0.306 | glycan array binding signal (z-score) [17]: -0.378 | glycan array binding signal (z-score) [18]: -0.686 | glycan array binding signal (z-score) [19]: -0.754 | glycan array binding signal (z-score) [20]: -0.954 | glycan array binding signal (z-score) [21]: -0.892 | glycan array binding signal (z-score) [22]: -0.922 | glycan array binding signal (z-score) [23]: -0.845 | glycan array binding signal (z-score) [24]: -0.795 | glycan array binding signal (z-score) [25]: -0.646 | glycan array binding signal (z-score) [26]: -0.874 | glycan array binding signal (z-score) [27]: -0.809 | glycan array binding signal (z-score) [28]: -0.196 | glycan array binding signal (z-score) [29]: -0.857 | glycan array binding signal (z-score) [30]: -0.981 | glycan array binding signal (z-score) [31]: -1.02 | glycan array binding signal (z-score) [32]: -0.653 | glycan array binding signal (z-score) [33]: -0.03 | glycan array binding signal (z-score) [34]: 2.63
